Among the data in PMC8608314 are binding values, retold here.

The chains behind the UniProt entries cited, without tags or fusion partners. Where a name states a change or a piece, a line headed by the entry shows the natural chain unless it says otherwise.
UniProt Q38DR9: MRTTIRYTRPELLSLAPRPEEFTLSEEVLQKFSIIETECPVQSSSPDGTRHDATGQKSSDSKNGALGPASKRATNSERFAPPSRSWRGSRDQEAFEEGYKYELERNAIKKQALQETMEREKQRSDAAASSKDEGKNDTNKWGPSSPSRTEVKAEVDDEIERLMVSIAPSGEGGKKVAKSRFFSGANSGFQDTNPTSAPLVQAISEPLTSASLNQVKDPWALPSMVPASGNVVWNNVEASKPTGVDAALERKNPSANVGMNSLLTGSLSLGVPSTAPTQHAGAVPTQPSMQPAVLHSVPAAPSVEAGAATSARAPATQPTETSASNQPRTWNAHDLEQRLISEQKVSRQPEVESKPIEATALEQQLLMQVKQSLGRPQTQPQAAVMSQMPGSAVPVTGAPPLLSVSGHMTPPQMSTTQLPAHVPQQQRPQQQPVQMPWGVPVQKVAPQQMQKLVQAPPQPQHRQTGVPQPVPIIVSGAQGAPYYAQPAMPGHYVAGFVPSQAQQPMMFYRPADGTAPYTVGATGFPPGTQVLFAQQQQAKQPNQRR

These are yes or no findings as the source states them, for the method shown. Binding calls can cover weak binding; strength is not graded here. Sequences can lack the tags named with a protein. For some assays here: Binding seen in cells or lysates may run through a third protein.

Test [1] deals with T1, TUT3 two-hybrid fusion (Trypanosoma brucei) (UniProt Q6B9Y8).
T1 sequence: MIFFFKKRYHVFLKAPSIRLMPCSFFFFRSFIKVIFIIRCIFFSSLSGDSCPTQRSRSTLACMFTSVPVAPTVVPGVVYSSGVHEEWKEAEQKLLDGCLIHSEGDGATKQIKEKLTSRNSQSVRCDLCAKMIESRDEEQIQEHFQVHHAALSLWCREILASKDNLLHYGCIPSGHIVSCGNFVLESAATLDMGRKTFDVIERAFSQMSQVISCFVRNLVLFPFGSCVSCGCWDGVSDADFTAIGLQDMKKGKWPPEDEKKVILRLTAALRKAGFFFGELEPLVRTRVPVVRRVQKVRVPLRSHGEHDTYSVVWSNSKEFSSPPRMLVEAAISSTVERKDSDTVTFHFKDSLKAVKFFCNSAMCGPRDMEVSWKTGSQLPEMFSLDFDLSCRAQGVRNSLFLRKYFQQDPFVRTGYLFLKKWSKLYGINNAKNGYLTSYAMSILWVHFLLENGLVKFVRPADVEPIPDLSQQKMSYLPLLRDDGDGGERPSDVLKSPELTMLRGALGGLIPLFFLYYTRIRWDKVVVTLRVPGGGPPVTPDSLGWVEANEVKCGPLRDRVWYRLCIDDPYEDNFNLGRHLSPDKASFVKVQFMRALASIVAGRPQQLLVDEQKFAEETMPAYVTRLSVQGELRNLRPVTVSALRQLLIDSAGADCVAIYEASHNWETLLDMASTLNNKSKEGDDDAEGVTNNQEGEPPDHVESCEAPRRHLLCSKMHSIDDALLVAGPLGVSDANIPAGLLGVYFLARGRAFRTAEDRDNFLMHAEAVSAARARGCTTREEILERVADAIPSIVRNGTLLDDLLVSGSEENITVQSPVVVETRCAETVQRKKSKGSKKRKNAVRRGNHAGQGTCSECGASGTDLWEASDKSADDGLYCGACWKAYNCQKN
The experiment in a line: two-hybrid; Matchmaker Yeast Two-Hybrid System (Clontech), pGBKT7 and pGADT7 plasmids co-transformed pairwise into AH109; growth on plates lacking Trp, Leu, His and Ade indicates interaction.

The target of test [2] is T2, TUT3-myc (Trypanosoma brucei) (UniProt Q6B9Y8).
T2 sequence: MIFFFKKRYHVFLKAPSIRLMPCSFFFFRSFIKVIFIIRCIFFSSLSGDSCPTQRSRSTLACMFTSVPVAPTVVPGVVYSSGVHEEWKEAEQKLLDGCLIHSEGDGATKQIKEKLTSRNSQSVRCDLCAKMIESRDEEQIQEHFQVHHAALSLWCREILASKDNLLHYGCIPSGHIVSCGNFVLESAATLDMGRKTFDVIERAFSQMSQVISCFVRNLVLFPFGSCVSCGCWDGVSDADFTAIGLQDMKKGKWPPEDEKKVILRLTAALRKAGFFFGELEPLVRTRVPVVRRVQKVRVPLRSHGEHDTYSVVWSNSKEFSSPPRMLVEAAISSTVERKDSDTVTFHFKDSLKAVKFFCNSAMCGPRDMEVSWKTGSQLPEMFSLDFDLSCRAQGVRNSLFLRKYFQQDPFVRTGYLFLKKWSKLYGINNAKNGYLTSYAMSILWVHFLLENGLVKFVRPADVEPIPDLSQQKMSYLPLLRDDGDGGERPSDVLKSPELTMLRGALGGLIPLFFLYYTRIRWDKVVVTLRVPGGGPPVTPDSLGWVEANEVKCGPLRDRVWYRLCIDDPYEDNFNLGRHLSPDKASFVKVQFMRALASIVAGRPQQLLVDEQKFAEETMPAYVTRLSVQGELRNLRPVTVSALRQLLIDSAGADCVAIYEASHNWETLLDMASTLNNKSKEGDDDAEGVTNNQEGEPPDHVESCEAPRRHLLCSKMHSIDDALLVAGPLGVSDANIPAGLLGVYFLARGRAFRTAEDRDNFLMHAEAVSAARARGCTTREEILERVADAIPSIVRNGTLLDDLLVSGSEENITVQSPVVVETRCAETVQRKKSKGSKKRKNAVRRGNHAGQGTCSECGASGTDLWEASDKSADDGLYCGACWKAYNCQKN
The experiment in a line: co-IP; bloodstream forms; pull-down of V5-tagged 4EIP with blot for TUT3-myc, and pull-down of myc-tagged TUT3 with blot for 4EIP-V5; in absence or presence of RNase A.

Test [3] concerns the target V5-tagged 4EIP (Trypanosoma brucei) (UniProt Q38DR9). Described as above.
In test [4] the target is 4EIP two-hybrid fusion (Trypanosoma brucei) (UniProt Q38DR9). The experiment in a line: two-hybrid; Matchmaker Yeast Two-Hybrid System (Clontech), pGBKT7 and pGADT7 plasmids co-transformed pairwise into AH109; growth on plates lacking Trp, Leu, His and Ade indicates interaction.

For “T. brucei homolog of Dis3L2, two-hybrid fusion (Trypanosoma brucei) (enzyme)”, in test [1], the binding entry was “no binding”.
Consider “4EIP two-hybrid fusion (from UniProt Q38DR9)”, for which the binding result in test [1] is on record as “binds”.
Turning to V5-tagged 4EIP (from UniProt Q38DR9), the binding entry in test [2] is listed as “binds”.

B1: TUT3-myc (enzyme, UniProt Q6B9Y8 1-889)
chain: MIFFFKKRYHVFLKAPSIRLMPCSFFFFRSFIKVIFIIRCIFFSSLSGDSCPTQRSRSTLACMFTSVPVAPTVVPGVVYSSGVHEEWKEAEQKLLDGCLIHSEGDGATKQIKEKLTSRNSQSVRCDLCAKMIESRDEEQIQEHFQVHHAALSLWCREILASKDNLLHYGCIPSGHIVSCGNFVLESAATLDMGRKTFDVIERAFSQMSQVISCFVRNLVLFPFGSCVSCGCWDGVSDADFTAIGLQDMKKGKWPPEDEKKVILRLTAALRKAGFFFGELEPLVRTRVPVVRRVQKVRVPLRSHGEHDTYSVVWSNSKEFSSPPRMLVEAAISSTVERKDSDTVTFHFKDSLKAVKFFCNSAMCGPRDMEVSWKTGSQLPEMFSLDFDLSCRAQGVRNSLFLRKYFQQDPFVRTGYLFLKKWSKLYGINNAKNGYLTSYAMSILWVHFLLENGLVKFVRPADVEPIPDLSQQKMSYLPLLRDDGDGGERPSDVLKSPELTMLRGALGGLIPLFFLYYTRIRWDKVVVTLRVPGGGPPVTPDSLGWVEANEVKCGPLRDRVWYRLCIDDPYEDNFNLGRHLSPDKASFVKVQFMRALASIVAGRPQQLLVDEQKFAEETMPAYVTRLSVQGELRNLRPVTVSALRQLLIDSAGADCVAIYEASHNWETLLDMASTLNNKSKEGDDDAEGVTNNQEGEPPDHVESCEAPRRHLLCSKMHSIDDALLVAGPLGVSDANIPAGLLGVYFLARGRAFRTAEDRDNFLMHAEAVSAARARGCTTREEILERVADAIPSIVRNGTLLDDLLVSGSEENITVQSPVVVETRCAETVQRKKSKGSKKRKNAVRRGNHAGQGTCSECGASGTDLWEASDKSADDGLYCGACWKAYNCQKN
B1: the binding entry in test [3] is on record as “binds”.

B2: TUT3 two-hybrid fusion (enzyme, UniProt Q6B9Y8 1-889)
chain: MIFFFKKRYHVFLKAPSIRLMPCSFFFFRSFIKVIFIIRCIFFSSLSGDSCPTQRSRSTLACMFTSVPVAPTVVPGVVYSSGVHEEWKEAEQKLLDGCLIHSEGDGATKQIKEKLTSRNSQSVRCDLCAKMIESRDEEQIQEHFQVHHAALSLWCREILASKDNLLHYGCIPSGHIVSCGNFVLESAATLDMGRKTFDVIERAFSQMSQVISCFVRNLVLFPFGSCVSCGCWDGVSDADFTAIGLQDMKKGKWPPEDEKKVILRLTAALRKAGFFFGELEPLVRTRVPVVRRVQKVRVPLRSHGEHDTYSVVWSNSKEFSSPPRMLVEAAISSTVERKDSDTVTFHFKDSLKAVKFFCNSAMCGPRDMEVSWKTGSQLPEMFSLDFDLSCRAQGVRNSLFLRKYFQQDPFVRTGYLFLKKWSKLYGINNAKNGYLTSYAMSILWVHFLLENGLVKFVRPADVEPIPDLSQQKMSYLPLLRDDGDGGERPSDVLKSPELTMLRGALGGLIPLFFLYYTRIRWDKVVVTLRVPGGGPPVTPDSLGWVEANEVKCGPLRDRVWYRLCIDDPYEDNFNLGRHLSPDKASFVKVQFMRALASIVAGRPQQLLVDEQKFAEETMPAYVTRLSVQGELRNLRPVTVSALRQLLIDSAGADCVAIYEASHNWETLLDMASTLNNKSKEGDDDAEGVTNNQEGEPPDHVESCEAPRRHLLCSKMHSIDDALLVAGPLGVSDANIPAGLLGVYFLARGRAFRTAEDRDNFLMHAEAVSAARARGCTTREEILERVADAIPSIVRNGTLLDDLLVSGSEENITVQSPVVVETRCAETVQRKKSKGSKKRKNAVRRGNHAGQGTCSECGASGTDLWEASDKSADDGLYCGACWKAYNCQKN
Turning to B2, in test [4], the binding entry is “binds”.
